Our source for the binding values is PMC1414084.

Holding throughout (experiment): two-hybrid; mammalian two-hybrid; bait fused to the Gal4 DNA-binding domain (BIND), prey to the VP16 transcriptional activation domain (ACT); luciferase reporter; cultured mammalian cells, 37°C; positive from 3 times the background activity (level 1), the selected set is level 2 (>=5 to <10 times) and level 3 (>=10 times)
(In general: In a reporter assay the amount or activity of a reporter protein is the signal.)

For experiment [1], the target named is PH1305, hypothetical protein (Pyrococcus horikoshii OT3) (UniProt O59000).
The target of experiment [2] is T1, PH0127, hypothetical protein (Pyrococcus horikoshii OT3) (UniProt O57867).
T1 sequence: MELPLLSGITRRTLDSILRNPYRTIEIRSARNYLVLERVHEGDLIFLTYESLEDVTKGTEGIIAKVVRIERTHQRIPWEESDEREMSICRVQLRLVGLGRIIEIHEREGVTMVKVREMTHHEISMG

Experiment [3] has as its target PH0008, hypothetical protein (Pyrococcus horikoshii OT3) (UniProt O57772).
In experiment [4] the target is PH1503, hypothetical protein (Pyrococcus horikoshii OT3) (UniProt O59172).
Experiment [5] deals with PH0776, methanol dehalogenase regulatory protein (Pyrococcus horikoshii OT3) (UniProt O58484).
The target of experiment [6] is PH0125, 5'-methylthioadenosine phosphorylase (Pyrococcus horikoshii OT3) (UniProt O57865).
The target in experiment [7] is PH0762, probable thymidylate synthase (Pyrococcus horikoshii OT3) (UniProt O58498).
Experiment [8] deals with T2, PH0795, hypothetical protein (Pyrococcus horikoshii OT3) (UniProt O58525).
T2 sequence: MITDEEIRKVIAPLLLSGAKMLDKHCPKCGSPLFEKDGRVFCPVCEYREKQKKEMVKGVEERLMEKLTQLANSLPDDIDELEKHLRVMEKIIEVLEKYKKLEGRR

Experiment [9] deals with PH0634, 6-pyruvoyl-tetrahydropterin synthase (Pyrococcus horikoshii OT3) (UniProt O58368).
Experiment [10] addresses PH0596, pyrrolidone-carboxylate peptidase (Pyrococcus horikoshii OT3) (UniProt O58321).
For experiment [11], the target named is PH0519, hypothetical protein (Pyrococcus horikoshii OT3) (UniProt O58255).

No constants are given. Whether binding was seen depends on the method and setting. Some results given as binding are weak or reduced against the parent protein; the word gives no strength.

B1: PH1305, hypothetical protein (protein, UniProt O59000 1-252)
chain: MYELYTLLAEYYDTIYRRRIERVKAEIDFVEEIFKEDAKREVRRVLDLACGTGIPTLELAERGYEVVGLDLHEEMLRVARRKAKERNLKIEFLQGDVLEIAFKNEFDAVTMFFSTIMYFDEEDLRKLFSKVAEALKPGGVFITDFPCWFYGGRDGPVVWNEQKGEEKLVIMDWREVEPAVQKLRFKRLVQILRPNGEVKAFLVDDELNIYTPREVRLLAEKYFEKVKIYGNLKRELSPNDMRYWIVGIAKSF
As for B1, in experiment [1], the binding result was “binds”.

B2: PH0127, hypothetical protein (protein, UniProt O57867 1-126)
chain: MELPLLSGITRRTLDSILRNPYRTIEIRSARNYLVLERVHEGDLIFLTYESLEDVTKGTEGIIAKVVRIERTHQRIPWEESDEREMSICRVQLRLVGLGRIIEIHEREGVTMVKVREMTHHEISMG
As to B2, the binding result in experiment [2] is “binds”.

B3: PH0008, hypothetical protein (protein, UniProt O57772 1-380)
chain: MKAVKATLMYDGLGNIEKNVYIIFDKDIVNITREKPKDVEVVAEGVVTPAFIDAHSHIGMDRYGEPYQESELNEQMDSVLPLADALYSIYMDDKAFKHSIEFGVLYSSILPGSGNIIGGKGVLIRNYGRDIEDAFIKYVGVKAAFGYNPRSTTNWKGLRPSTRMGAIGILFNWLIKTKKTISLLEKGKKDPEEIDPVIEALIPVLKGEMPLRVHAHKEDDIAVLLMIKRKFNLKVTVEHAADVHSKETFEKIKREGVPLVYGPLDAHPYKVELKHEDWKNAKYLLEVKPFFGLMSDHPFSIQANLYLQLRHFIRLGMSKAEAIKLITYNNAKILGIEDKLGSLEKGKWASLVVWNGDPFNLENYPTHVFAEGELIHEANL
For the molecule B3, the binding result in experiment [3] is listed as “binds”.

B4: PH1503, hypothetical protein (protein, UniProt O59172 1-127)
chain: MVEVEHWNTLRLRIYIGENDKWEGRPLYKVIVEKLREMGIAGATVYRGIYGFGKKSRVHSSDVIRLSTDLPIIVEVVDRGHNIEKVVNVIKPMIKDGMITVEPTIVLWVGTQEEIKKFEEDAIAERQ
As to B4, the binding entry in experiment [4] is reported as “binds”.

B5: PH0776, methanol dehalogenase regulatory protein (protein, UniProt O58484 1-314)
chain: MDVQKKAQMVIEEVKKAIVGKDNVLKLVLATILADGHILIEDLPGLAKTLMAKSFAKALGLEFKRVQFTPDLLPSDILGVNVFNQKTLEFEFKKGPVFTNILLADEINRAPPKTQSALLEAMQERQVTIEGVTYKLPKPFIVIATQNPIEQEGTYPLPEAQLDRFLVRLRMGYPSKDEEKEILRRRIERKQDEVEIETVLSPKDVLKMQREVEDVYVSDAIIEYITSLVWATREDKRDIEIGVSPRGSLALLKLSRAYAAIEGRDYVIPDDVKAVAIPALSHRIILKRELWYTRVSQESVIEKILERVPVPKFE
For B5, in experiment [5], the binding result was “binds”.

B6: PH0125, 5'-methylthioadenosine phosphorylase (protein, UniProt O57865 1-257)
chain: MPKIGIIGGSGVYGVFEPKEVVKVHTPYGRPSAPIEIGEIEGVEVAFIPRHGKYHEFPPHQVPYRANIWALHELGVERVIAINAVGSLKEEYKPGDIVIIDQFIDFTKKREYTFYNGPKVAHVSMADPFCPELRKIFIETAKELNLPVHERGTYVCIEGPRFSTRAESRMFRQFADVIGMTLVPEVNLARELGMCYVNISTVTDYDVWAEKPVDAQEVLRVMKENEEKVQKLLKRAIPKIPEERKCGCADVLKTMFV
Consider B6, for which the binding result in experiment [6] is on record as “binds”.

B7: PH0762, probable thymidylate synthase (protein, UniProt O58498 1-243)
chain: MVKVKLINYTPKPLETVTWAALISYWDGWSTEAFEKISPNDVEIHLPRILSYGHESILEHATFTFSIEGCSRVCTHQLVRHRIASYTQQSQRYIKINPEDVEETFVIPESIKKDSELLKEWKELLKRSLELYEKSIERGIHQEDARFILPQSVKTKIVVTMNLRELKHFFGLRLCERAQWEIREVAWKMLEEIAKRKELKPIIEWAKLGPRCIQLGYCPERELMPPGCLKRTRERWKNLLEKY
For the molecule B7, in [7], the binding result is recorded as “binds”.

B8: PH0017 (protein, UniProt O57762 1-549)
chain: MAQLAGQPILILPEGTQRYVGRDAQRMNILAARIIAETVRTTLGPKGMDKMLVDSLGDIVITNDGATILDEMDIQHPAAKMMVEVAKTQDKEAGDGTTTAVVIAGELLKKAEELLDQNIHPSIIIKGYTLASQKAQEILDSIAKEVKPDDEEVLLKAAMTAITGKAAEEEREYLAKLAVEAVKLVAEEKDGKLKVDIDNIKLEKKEGGAVRDTRLIRGVVIDKEVVHPGMPKRIENAKIALINDALEVKETETDAEIRITSPEQLQAFLEQEEKMLKEMVDKIKEVGANVVFVQKGIDDLAQHYLAKYGILAVRRVKKSDMEKLAKATGAKIVTNIRDLTPEDLGEAELVEERKVAGENMIFVEGCKNPKAVTILIRGGTEHVVDEVERALEDAIKVVKDILEDGKIIAGGGASEIELSIKLDEYAKEVGGKEQLAIEAFAEALKVIPRTLAENAGLDPIETLVKVIAAHKEKGQTIGIDVYEGEPADMMERGVIEPVRVKKQAIKSASEAAIMILRIDDVIAASKLEKEKEGEKGGGSEEFSGSSDLD
Regarding B8, the binding result in [8] is reported as “binds”.

B9: PH0126, 3-isopropylmalate dehydratase (protein, UniProt O57866 1-241)
chain: MENRPVNIVLPKIENPILIEGYPGIGLVGHIAANFLAKELKMEVIGYVESSFIPPMSLILEGKPNPPLRFYGKDNIIIAVADIYLPPTLINEIAKEIANYLEQNKAEKVISLGGMGIGIFKDKFEVWGVGGTEEENKELQDLGVKILEYGSISGMSGKLLWEASRRGLKSYVILGETFGDRPDPRAAANVVEVLDRMLTLNVSVEPLLKEAEMIEEQLRKMHEQMEKARRSVEKQYETMYL
For B9, the binding result in experiment [2] is reported as “binds”.

B10: PH0795, hypothetical protein (protein, UniProt O58525 1-105)
chain: MITDEEIRKVIAPLLLSGAKMLDKHCPKCGSPLFEKDGRVFCPVCEYREKQKKEMVKGVEERLMEKLTQLANSLPDDIDELEKHLRVMEKIIEVLEKYKKLEGRR
In the case of B10, in experiment [8], the binding entry was “binds”.

B11: PH0634, 6-pyruvoyl-tetrahydropterin synthase (protein, UniProt O58368 1-115)
chain: MKSRIIVRTSFDAAHAVKVGDHWEDVHGHTFFLEVAIEGEIKNGYVMDFLELRKIVEEITKELDHRNLNNIFENPTTENIALWIGERIRDKLPPYVKLKRVVLWEGKDNGVELEW
Consider B11, for which the binding entry in experiment [9] is given as “binds”.

B12: PH0596, pyrrolidone-carboxylate peptidase (protein, UniProt O58321 1-206)
chain: MKILLTGFEPFGGDDKNPTMDIVEALSERIPEVVGEILPVSFKRAREKLLKVLDDVRPDITINLGLAPGRTHISVERVAVNMIDARIPDNDGEQPKDEPIVEGGPAAYFATIPTREIVEEMKKNGIPAVLSYTAGTYLCNFAMYLTLHTSATKGYPKIAGFIHVPYTPDQVLEKKNTPSMSLDLEIKGVEIAIRVAQSALHSSQLR
For B12, the binding entry in experiment [10] is given as “binds”.

B13: PH0519, hypothetical protein (protein, UniProt O58255 1-332)
chain: MMSMIEKLKKFTQIPGISGYEERIREEIIREIKDFADYKVDAIGNLIVELGEGEERILFMAHMDEIGLLITGITDEGKLRFRKVGGIDDRLLYGRHVNVVTEKGILDGVIGATPPHLSLERDKSVIPWYDLVIDIGAESKEEALELVKPLDFAVFKKHFSVLNGKYVSTRGLDDRFGVVALIEAIKDLVDHELEGKVIFAFTVQEEVGLKGAKFLANHYYPQYAFAIDSFACCSPLTGDVKLGKGPVIRAVDNSAIYSRDLARKVWSIAEKNGIEIQIGVTGGGTDASAFQDRSKTLALSVPIKYLHSEVETLHLNDLEKLVKLIEALAFEL
For the molecule B13, the binding entry in experiment [11] is reported as “binds”.
